Source: the supplement of paper PMC9233669
Variants at the floor of the assay are shown more often than the library holds them.

Key:
biotinyl-Val-oxazolone = assay: self-aminoacylation, catalytic enhancement (BVO) (fold over background); higher = more active; k-Seq, kA / k0A0; sequences stand for … in GGGAAUGGAUCCACAUCUACGAAUUC…UUCACUGCAGACUUGACGAAGCUG
Method in brief: (§1)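 Each biotinyl-aminoacyl-oxazolone, at 2–1250 μM, was incubated with mutagenized RNA pools (0.43 μM) carrying a 21-nt variable region. The 50 μL reactions contained HEPES/NaCl/KCl/MgCl2/CaCl2 buffer with 5% acetonitrile at pH 6.9–7.0 and ran for 90 minutes at room temperature. After streptavidin capture, RNA was measured by qPCR in triplicate and by Illumina sequencing, and catalytic enhancement was calculated as median kA over the uncatalyzed rate from a pseudo-first-order fit of per-sequence fraction reacted.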

biotinyl-Phe-oxazolone = assay: self-aminoacylation, catalytic enhancement (BFO) (fold over background); higher = more active; k-Seq, kA / k0A0; sequences stand for … in GGGAAUGGAUCCACAUCUACGAAUUC…UUCACUGCAGACUUGACGAAGCUG
Method in brief: as §1

biotinyl-Ile-oxazolone = assay: self-aminoacylation, catalytic enhancement (BIO) (fold over background); higher = more active; k-Seq, kA / k0A0; sequences stand for … in GGGAAUGGAUCCACAUCUACGAAUUC…UUCACUGCAGACUUGACGAAGCUG
Method in brief: as §1

biotinyl-Trp-oxazolone = assay: self-aminoacylation, catalytic enhancement (BWO) (fold over background); higher = more active; k-Seq, kA / k0A0; sequences stand for … in GGGAAUGGAUCCACAUCUACGAAUUC…UUCACUGCAGACUUGACGAAGCUG
Method in brief: as §1

biotinyl-Leu-oxazolone = assay: self-aminoacylation, catalytic enhancement (BLO) (fold over background); higher = more active; k-Seq, kA / k0A0; sequences stand for … in GGGAAUGGAUCCACAUCUACGAAUUC…UUCACUGCAGACUUGACGAAGCUG
Method in brief: as §1

biotinyl-Met-oxazolone = assay: self-aminoacylation, catalytic enhancement (BMO) (fold over background); higher = more active; k-Seq, kA / k0A0; sequences stand for … in GGGAAUGGAUCCACAUCUACGAAUUC…UUCACUGCAGACUUGACGAAGCUG
Method in brief: as §1

Sequence	self-aminoacylation (biotinyl-Val-oxazolone)	self-aminoacylation (biotinyl-Phe-oxazolone)	self-aminoacylation (biotinyl-Ile-oxazolone)	self-aminoacylation (biotinyl-Trp-oxazolone)	self-aminoacylation (biotinyl-Leu-oxazolone)	self-aminoacylation (biotinyl-Met-oxazolone)
CUUACCCUGGUCAUCGCGUGA [Fam2.1 aminoacylation ribozyme variant]	10.9	148	7.79	18.5	18.9	18.7
CUUCACCUAGGCCAUCGGGUG [Fam2.2 aminoacylation ribozyme variant]	3.8	11.2	2.55	4.2	4.08	3.12
CUUCACCUAUGUCAUCGGGUG [Fam2.2 aminoacylation ribozyme variant]	2.83	17	2.35	4.46	4.68	3.64
CUUCUUCAAACAAUCAGUCUG [Fam1A.1 aminoacylation ribozyme variant]	0.772	12.3	0.732	5.05	0.814	0.676
CUUCUUCAAACAAUCGGUCUC [Fam1A.1 aminoacylation ribozyme variant]	0.874	28.6	0.814	13.6	1.08	0.773
CUUCUUCAUACAAUCGGUCUG [Fam1A.1 aminoacylation ribozyme variant]	0.706	0.743	0.658	0.502	0.616	0.622
GCACACGUCAAGCAAUCGGUC [Fam1B.1 aminoacylation ribozyme variant]	2.85	11.5	2.63	3.95	2.18	2.47
GCACACUCCAAGCAAUCGGUC [Fam1B.1 aminoacylation ribozyme variant]	1.55	2.35	1.36	2.53	1.48	1.31
GCACACUUAAAGCAAUCGGUC [Fam1B.1 aminoacylation ribozyme variant]	1.18	1.1	1.25	1.49	1.15	1.06
GUACUUAAAACAAUCGGUCUG [Fam1A.1 aminoacylation ribozyme variant]	0.982	1.16	1.05	1.25	0.926	1.07
GUACUUCUAACAAUCGGUCUG [Fam1A.1 aminoacylation ribozyme variant]	1.15	1.66	1.21	1.41	1.09	0.93
GUACUUGAAACAAUCGGUCUG [Fam1A.1 aminoacylation ribozyme variant]	1.13	1.4	1.2	1.23	1.07	1.04
GUUCACCUAGGUCCUCGGGUG [Fam2.2 aminoacylation ribozyme variant]	4.16	25.5	3.49	5.27	4.67	4.16
UAGUAUGCUAAUAGUCGCAAG [Fam3.1 aminoacylation ribozyme variant]	1.13	2	1.62	1.68	1.57	1.28
UCACACUUCAAGCAAGCGGUC [Fam1B.1 aminoacylation ribozyme variant]	1.06	0.807	0.965	0.746	0.991	1.02
UCACACUUCAAGCAAUCGGGC [Fam1B.1 aminoacylation ribozyme variant]	1.75	0.995	1.55	1.2	1.25	1.2
UCACACUUCUAGCAAUCGGUC [Fam1B.1 aminoacylation ribozyme variant]	0.748	0.768	0.788	0.741	0.628	0.604
UUAAUUCAAACAAUCGGUCUG [Fam1A.1 aminoacylation ribozyme variant]	0.836	3.57	0.882	2.47	0.923	0.804
UUACUUCAAACAAUCCGUCUG [Fam1A.1 aminoacylation ribozyme variant]	1.2	1.92	1.33	1.77	1.06	1.28
UUACUUCAUACAAUCGGUCUG [Fam1A.1 aminoacylation ribozyme variant]	1.19	1.42	1.19	1.03	1.09	1.19
